Source: the supplement of paper PMC7661543
± gives the standard deviation of the averaged measurements. Differences between knockout arms are mostly noise.

System: BT-20
Experiment: relative cell number vs DMSO control (72 h) (% of DMSO); higher = less growth inhibition (more cells)
Experimental: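 QMAP-Seq: a pool of 5 breast cancer cell lines (ZR-75-1, SKBR3, HCC-38, MDA-MB-231, BT-20), each carrying 12 doxycycline-inducible Cas9 sgRNA perturbations (11 knockouts plus non-targeting sgNT), was treated with compounds for 72 h at four 10-fold doses (10 nM-10 uM or 1 nM-1 uM range). Barcodes were amplified and sequenced, and cell number was interpolated from 293T spike-in standard curves. The result is expressed as % of the median of DMSO wells. Two biological replicates.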

CCNC(=O)c1noc(-c2cc(C(C)C)c(O)cc2O)c1-c1ccc(CN2CCOCC2)cc1 [NVPAUY922]
Settings | relative cell number
sgRNA knockout: sgATF3, 1 nM | 108 ± 23
sgRNA knockout: sgATF3, 10 nM | 81.5 ± 4
sgRNA knockout: sgATF3, 100 nM | 40.5 ± 5.8
sgRNA knockout: sgATF3, 1000 nM | 38.622 ± 0.0059
sgRNA knockout: sgATF4, 1 nM | 108 ± 9
sgRNA knockout: sgATF4, 10 nM | 84.6 ± 3.4
sgRNA knockout: sgATF4, 100 nM | 48.3 ± 2.2
sgRNA knockout: sgATF4, 1000 nM | 47.1 ± 0.74
sgRNA knockout: sgATF6, 1 nM | 101 ± 32
sgRNA knockout: sgATF6, 10 nM | 87.6 ± 4.3
sgRNA knockout: sgATF6, 100 nM | 40.6 ± 5.2
sgRNA knockout: sgATF6, 1000 nM | 31.5 ± 3.3
sgRNA knockout: sgATG7, 1 nM | 99.5 ± 31
sgRNA knockout: sgATG7, 10 nM | 81.4 ± 13
sgRNA knockout: sgATG7, 100 nM | 46.1 ± 1.9
sgRNA knockout: sgATG7, 1000 nM | 31.4 ± 0.76
sgRNA knockout: sgERN1, 1 nM | 108 ± 12
sgRNA knockout: sgERN1, 10 nM | 75.8 ± 3.6
sgRNA knockout: sgERN1, 100 nM | 37.9 ± 3.1
sgRNA knockout: sgERN1, 1000 nM | 39.5 ± 2.1
sgRNA knockout: sgHSF1, 1 nM | 102 ± 30
sgRNA knockout: sgHSF1, 10 nM | 81.7 ± 4.9
sgRNA knockout: sgHSF1, 100 nM | 42.9 ± 4.3
sgRNA knockout: sgHSF1, 1000 nM | 37 ± 3.5
sgRNA knockout: sgHSF2, 1 nM | 107 ± 48
sgRNA knockout: sgHSF2, 10 nM | 81.9 ± 3.2
sgRNA knockout: sgHSF2, 100 nM | 41.3 ± 4.6
sgRNA knockout: sgHSF2, 1000 nM | 43.8 ± 12
sgRNA knockout: sgKEAP1, 1 nM | 124 ± 12
sgRNA knockout: sgKEAP1, 10 nM | 76.4 ± 6.7
sgRNA knockout: sgKEAP1, 100 nM | 42.7 ± 5.2
sgRNA knockout: sgKEAP1, 1000 nM | 36.1 ± 2.9
sgRNA knockout: sgNFE2L2, 1 nM | 109 ± 26
sgRNA knockout: sgNFE2L2, 10 nM | 90.3 ± 14
sgRNA knockout: sgNFE2L2, 100 nM | 45.4 ± 1.4
sgRNA knockout: sgNFE2L2, 1000 nM | 29.98 ± 0.099
sgRNA knockout: sgSLC35F2, 1 nM | 99.8 ± 29
sgRNA knockout: sgSLC35F2, 10 nM | 87.4 ± 9.8
sgRNA knockout: sgSLC35F2, 100 nM | 42.2 ± 5.5
sgRNA knockout: sgSLC35F2, 1000 nM | 36.3 ± 3.6
sgRNA knockout: sgXBP1, 1 nM | 120 ± 27
sgRNA knockout: sgXBP1, 10 nM | 93.81 ± 0.58
sgRNA knockout: sgXBP1, 100 nM | 46 ± 7.6
sgRNA knockout: sgXBP1, 1000 nM | 37.1 ± 2

O=C(Nc1ccc([N+](=O)[O-])cc1Cl)c1cc(Cl)ccc1O [Niclosamide]
Settings | relative cell number
sgRNA knockout: sgATF3, 10 nM | 87.8 ± 11
sgRNA knockout: sgATF3, 100 nM | 102 ± 7.1
sgRNA knockout: sgATF3, 1000 nM | 103 ± 16
sgRNA knockout: sgATF3, 10000 nM | 53.5 ± 9.6
sgRNA knockout: sgATF4, 10 nM | 107 ± 23
sgRNA knockout: sgATF4, 100 nM | 101 ± 24
sgRNA knockout: sgATF4, 1000 nM | 91.5 ± 2.8
sgRNA knockout: sgATF4, 10000 nM | 55.8 ± 4.8
sgRNA knockout: sgATF6, 10 nM | 95.2 ± 17
sgRNA knockout: sgATF6, 100 nM | 102 ± 5
sgRNA knockout: sgATF6, 1000 nM | 94.8 ± 11
sgRNA knockout: sgATF6, 10000 nM | 57.6 ± 6.6
sgRNA knockout: sgATG7, 10 nM | 99.9 ± 40
sgRNA knockout: sgATG7, 100 nM | 116 ± 20
sgRNA knockout: sgATG7, 1000 nM | 115 ± 15
sgRNA knockout: sgATG7, 10000 nM | 59.3 ± 1.3
sgRNA knockout: sgERN1, 10 nM | 96.1 ± 30
sgRNA knockout: sgERN1, 100 nM | 110 ± 3.2
sgRNA knockout: sgERN1, 1000 nM | 120 ± 25
sgRNA knockout: sgERN1, 10000 nM | 56.1 ± 4
sgRNA knockout: sgHSF1, 10 nM | 100 ± 8.6
sgRNA knockout: sgHSF1, 100 nM | 92.5 ± 25
sgRNA knockout: sgHSF1, 1000 nM | 99.4 ± 6.5
sgRNA knockout: sgHSF1, 10000 nM | 53.6 ± 9.3
sgRNA knockout: sgHSF2, 10 nM | 89.8 ± 13
sgRNA knockout: sgHSF2, 100 nM | 99.7 ± 6.8
sgRNA knockout: sgHSF2, 1000 nM | 106 ± 8.4
sgRNA knockout: sgHSF2, 10000 nM | 72.4 ± 3.4
sgRNA knockout: sgKEAP1, 10 nM | 95.5 ± 11
sgRNA knockout: sgKEAP1, 100 nM | 101 ± 29
sgRNA knockout: sgKEAP1, 1000 nM | 94.3 ± 5.9
sgRNA knockout: sgKEAP1, 10000 nM | 52.4 ± 2.4
sgRNA knockout: sgNFE2L2, 10 nM | 103 ± 9.5
sgRNA knockout: sgNFE2L2, 100 nM | 113 ± 6.5
sgRNA knockout: sgNFE2L2, 1000 nM | 99.1 ± 5.4
sgRNA knockout: sgNFE2L2, 10000 nM | 66.8 ± 6.6
sgRNA knockout: sgSLC35F2, 10 nM | 91.7 ± 1.2
sgRNA knockout: sgSLC35F2, 100 nM | 102 ± 18
sgRNA knockout: sgSLC35F2, 1000 nM | 94.9 ± 9.7
sgRNA knockout: sgSLC35F2, 10000 nM | 58.6 ± 10
sgRNA knockout: sgXBP1, 10 nM | 104 ± 42
sgRNA knockout: sgXBP1, 100 nM | 109 ± 13
sgRNA knockout: sgXBP1, 1000 nM | 109 ± 32
sgRNA knockout: sgXBP1, 10000 nM | 48.5 ± 0.57
